Some of the results follow. Single values are uncertain, as repeats are few or missing.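 Imaging used 1,536-well plates; nuclei positive for cleaved PARP by antibody were divided by total DNA-stained nuclei to yield the apoptosis fraction. Doses for screening kept most cells viable, and cell lines differ markedly in resting and induced cleaved-PARP levels.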
The molecules below were run on SkMel30 (assay: cleaved PARP positive nuclei fraction relative to DMSO control; melanoma cells; higher = more apoptosis). Details: library dose: low library concentration; 72 h.
`O=c1[nH]nc(Sc2ncc([N+](=O)[O-])s2)n1-c1ccc2c(c1)OCCO2` + CCCS(=O)(=O)Nc1ccc(F)c(C(=O)c2c[nH]c3ncc(Cl)cc23)c1F [PLX4720] (first compound 0.2 µM, partner dose 0.08 µM) was tested, and the “cleaved PARP positive nuclei fraction” value was 27.5%.
With `Cc1ccc(Nc2nccc(N(C)c3ccc4c(C)n(C)nc4c3)n2)cc1S(N)(=O)=O` [Pazopanib] + CC(=O)c1c(C)c2cnc(Nc3ccc(N4CCNCC4)cn3)nc2n(C2CCCC2)c1=O [palbociclib] (first compound 0.4 µM, partner dose 0.04 µM) the “cleaved PARP positive nuclei fraction” value was 78.8%.
`Cc1cn(-c2cc(NC(=O)c3ccc(C)c(Nc4nccc(-c5cccnc5)n4)c3)cc(C(F)(F)F)c2)cn1` [nilotinib] + CN(c1ncccc1CNc1nc(Nc2ccc3c(c2)CC(=O)N3)ncc1C(F)(F)F)S(C)(=O)=O [PF562271] (first compound 0.2 µM, partner dose 0.08 µM) was tested, and the “cleaved PARP positive nuclei fraction” value was 171%.
In the case of `CC[C@]1(O)C[C@H]2CN(CCc3c([nH]c4ccccc34)[C@@](C(=O)OC)(c3cc4c(cc3OC)N(C=O)[C@H]3[C@@](O)(C(=O)OC)[C@H](OC(C)=O)[C@]5(CC)C=CCN6CC[C@]43[C@@H]65)C2)C1` [vincristine] + COCC[n+]1c2c(n(Cc3cnccn3)c1C)C(=O)c1ccccc1C2=O [YM155] (first compound 0.0001 µM, partner dose 0.0004 µM), the “cleaved PARP positive nuclei fraction” value is reported as 47.1%.
With `Cc1cn(-c2cc(NC(=O)c3ccc(C)c(Nc4nccc(-c5cccnc5)n4)c3)cc(C(F)(F)F)c2)cn1` [nilotinib] + O=C(O)[C@@H]1[O][Sb](=[O])([O][Sb]2(=[O])[O][C@H]([C@H](O)CO)[C@H](O)[C@H](C(=O)O)[O]2)[O][C@H]([C@H](O)CO)[C@@H]1O [stibogluconate] (first compound 0.2 µM, partner dose 2 µM) the “cleaved PARP positive nuclei fraction” value was 127%.
For `COc1cc([C@@H]2c3cc4c(cc3[C@@H](O[C@@H]3O[C@@H]5CO[C@@H](C)O[C@H]5[C@H](O)[C@H]3O)[C@H]3COC(=O)[C@H]23)OCO4)cc(OC)c1O` [etoposide] + CCCCCCCCCCCCCCCCCCOP(=O)([O-])OC1CC[N+](C)(C)CC1 [Perifosine] (first compound 0.02 µM, partner dose 0.4 µM), the “cleaved PARP positive nuclei fraction” value was 34.1%.
For `O=C(/C=C/c1cccnc1)NCCCCC1CCN(C(=O)c2ccccc2)CC1` + CS(=O)(=O)c1ccc(C(=O)Nc2ccc(Cl)c(-c3ccccn3)c2)c(Cl)c1 [vismodegib] (first compound 0.01 µM, partner dose 1 µM), the “cleaved PARP positive nuclei fraction” value was 95.4%.
With `O=C(Nc1cc(C(F)(F)F)cc(C(F)(F)F)c1)c1cc(Cl)ccc1O` + CCCCCCCCc1ccc(CCC(N)(CO)CO)cc1 [fingolimod] (first compound 0.016 µM, partner dose 2 µM) the “cleaved PARP positive nuclei fraction” value was 44.2%.
In the case of `CC[C@]1(O)C[C@H]2CN(CCc3c([nH]c4ccccc34)[C@@](C(=O)OC)(c3cc4c(cc3OC)N(C=O)[C@H]3[C@@](O)(C(=O)OC)[C@H](OC(C)=O)[C@]5(CC)C=CCN6CC[C@]43[C@@H]65)C2)C1` [vincristine] + CCCCCCCCCCCCCCCCCCOP(=O)([O-])OC1CC[N+](C)(C)CC1 [Perifosine] (first compound 0.0001 µM, partner dose 0.4 µM), the “cleaved PARP positive nuclei fraction” value is reported as 259%.
In the case of `Cc1cc(Nc2cc(N3CCN(C)CC3)nc(Sc3ccc(NC(=O)C4CC4)cc3)n2)n[nH]1` [Tozasertib] + C#Cc1cccc(Nc2ncnc3cc(OCCOC)c(OCCOC)cc23)c1 [erlotinib] (first compound 0.006 µM, partner dose 0.8 µM), the “cleaved PARP positive nuclei fraction” value is reported as 129%.
With `Cc1cc(Nc2cc(N3CCN(C)CC3)nc(Sc3ccc(NC(=O)C4CC4)cc3)n2)n[nH]1` [Tozasertib] + CO[C@H]1C[C@@H]2CC[C@@H](C)[C@@](O)(O2)C(=O)C(=O)N2CCCC[C@H]2C(=O)O[C@H]([C@H](C)C[C@@H]2CC[C@@H](OCCO)[C@H](OC)C2)CC(=O)[C@H](C)/C=C(\C)[C@@H](O)[C@@H](OC)C(=O)[C@H](C)C[C@H](C)/C=C/C=C/C=C/1C [everolimus] (first compound 0.006 µM, partner dose 0.02 µM) the “cleaved PARP positive nuclei fraction” value was 139%.
With `Cc1ccc(Nc2nccc(N(C)c3ccc4c(C)n(C)nc4c3)n2)cc1S(N)(=O)=O` [Pazopanib] + C#Cc1cccc(Nc2ncnc3cc(OCCOC)c(OCCOC)cc23)c1 [erlotinib] (first compound 0.4 µM, partner dose 0.8 µM) the “cleaved PARP positive nuclei fraction” value was 185%.
With `CCCCCCCCCCCCCCCCCCOP(=O)([O-])OC1CC[N+](C)(C)CC1` [Perifosine] + C=C(c1ccc(C(=O)O)cc1)c1cc2c(cc1C)C(C)(C)CCC2(C)C [Bexarotene] (first compound 0.4 µM, partner dose 2 µM) the “cleaved PARP positive nuclei fraction” value was 91.7%.
For `O=c1[nH]nc(Sc2ncc([N+](=O)[O-])s2)n1-c1ccc2c(c1)OCCO2` + Cc1cc(Nc2cc(N3CCN(C)CC3)nc(/C=C/c3ccccc3)n2)n[nH]1 [ENMD2076] (first compound 0.2 µM, partner dose 0.04 µM), the “cleaved PARP positive nuclei fraction” value was 96.3%.
With `CCCCCCCCCCCCCCCCCCOP(=O)([O-])OC1CC[N+](C)(C)CC1` [Perifosine] + Clc1ccc(Nc2nnc(Cc3ccncc3)c3ccccc23)cc1 [vatalanib] (first compound 0.4 µM, partner dose 2 µM) the “cleaved PARP positive nuclei fraction” value was 71.7%.
In the case of `Cc1cn(-c2cc(NC(=O)c3ccc(C)c(Nc4nccc(-c5cccnc5)n4)c3)cc(C(F)(F)F)c2)cn1` [nilotinib] + Cn1nnc2c(C(N)=O)ncn2c1=O [temozolomide] (first compound 0.2 µM, partner dose 2 µM), the “cleaved PARP positive nuclei fraction” value is reported as 24.8%.

From the supplement of paper PMC4604168 (melanoma cell lines)
